Laboratory results: patent US20050282781A1, “Compositions of stable bioactive metabolites of docosahexaenoic (DHA) and eicosapentaenoic (EPA) acids” (priority 2004, published 2005)
For at least one compound, name, drawing or mass did not settle the structure.

How the values were obtained:
[1] = L-DOPA-sparing by singlet oxygen quenching (Rose Bengal plates); type: biochemical; details: for Percent inhibition of L-DOPA oxidation (mean ± SEM): 30 min exposure to 1O2, Pi buffer pH 7.2
Source text: A comparative study of the antioxidant defence provided by the three compounds, DBPs, EPA and DHA, was made. The reason for selection of this test (antioxidant-profile) is, that, agents that can regulate systemic production and interactions of reactive oxygen species, like singlet oxygen, superoxide radical and hydroxyl radical, can provide surveillance umbrella to living organisms against ‘oxidative stress’.
The singlet oxygen was generated on Rose Bengal-coated glass plates by illuminating with a 150-W spot-light at a distance of 30 cm, through water to filter infra-red light (Ghosal, S. and Bhattacharya, S. K. (1996). Antioxidant defence by shilajit, Indian J. Chem., 35B, 127-132).

[2] = tested on: increased 5-HT release activity in MDMA-treated rats; assay: MDMA-withdrawal increased 5-HT release; type: in vivo, rat; details: post-treatment in MDMA-treated rats
Source text: EPA or DHA would not be truly effective for this purpose. There is evidence that presynaptic serotonergic, but not dopaminergic, mechanisms are involved in the enactogen-like discriminative stimulus properties of MDMA. MDMA increases the number of rat brain 5-hydroxytryptamine 5-HT1A receptors and induces increased release of 5-HT from presynaptic terminals. The MDMA-withdrawal syndrome includes this increased 5-HT release activity in rats.

[3] = tested on: open-field test in rats; assay: Open-field test (anxiogenic test model); type: in vivo, rat; details: Table 5 model
Description: This was determined according to a previously described method (Bhattacharya et al. 1998).
MDMA (5 and 10 mg/Kg, i.p.) produced a dose-related decrease in the number of squares crossed and rears, with concomitant immobility and increased defecation; these effects are qualitatively similar to those induced by yohimbine (2 mg/Kg, i.p. in 0.9% saline as the vehicle). DBPs (1 and 2, 1:1 mixture 10 mg/Kg, p.o. day-1, for 7 days) were administered prior to MDMA or yohimbine administration, on the 7th day, 1 hour after the last DBPs administration (p.o.). Similar anti-anxiogenic effects were observed on pretreatment of MDMA, followed by DBPs.

[4] = tested on: pylorus ligated albino rats; assay: Anti-ulcerogenic effect in pylorus ligated rats (ulcer index, gastric juice); type: in vivo; details: 10 mg/ml
Source text: Mixture of DBPs (1:1, 1 and 2, Scheme-II), on'the other hand, increased the contents of individual and the total carbohydrates and also the total carbohydrate/protein ratio in the gastric juice. The ratio of the total carbohydrate/protein was taken as the index of the mucin activity.
Another essential criterion of determining the status of mucosal resistance/barrier is the state of mucus secretion. DBPs increase not only the mucosal cellular mucus, but also secrete more dissolved mucus in the gastric juice as evidenced by their effects on gastric juice carbohydrates and on the increased carbohydrate/protein ratio.

[5] = tested on: mice; assay: Forced swimming immobility (behavioral despair), anti-stress; type: in vivo; details: in these doses (50 mg/Kg p.o. × 4 days); statistically insignificant
Description: Rodents when forced to swim in a restricted place, from which they cannot escape, become immobile after an initial period of vigorous activity. The observed immobility signified behavioral despair, resembling a state of mental depression. Behavioral depression is a common consequence of stress. The significant anti-stress effects of DBPs (1 and 2, Scheme-II), was assessed by the considerable reduction in the period of immobility in the test compound treated mice.

Structure (SMILES): CC/C=C\C/C=C\C/C=C\C/C=C\C/C=C\C/C=C\CCC(=O)O [DHA, docosahexaenoic acid]
- antioxidant effect (1O2 quenching) ([1]; 0.1-0.4 mM): only weak antioxidant effect
- Percent inhibition of L-DOPA oxidation (mean ± SEM) ([1]; L-DOPA:test compound 1:0.1 mM): 6.9 ± 1.8%
- Percent inhibition of L-DOPA oxidation (mean ± SEM) ([1]; L-DOPA:test compound 1:0.4 mM): 8.2 ± 0.9%
- prevention of MDMA-withdrawal increased 5-HT release [2]: not
- reversal of the anxiety-inducing potential of MDMA [3]: only weak reversal effect
- anti-ulcerogenic effect [4]: only weak anti-ulcerogenic effects
- anti-stress response [5]: very weak anti-stress response
